Measurements: US20060183130A1 (VANDERBILT UNIVERSITY, published 2006)
Results are given in words; binding and its absence hold for the method and conditions named. In cells and extracts the contact can be indirect. Some results given as binding are weak or reduced against the parent protein; the word gives no strength.

T1: mouse p19ARF (murine p19Arf) (mouse) (UniProt Q64364)
T1 sequence: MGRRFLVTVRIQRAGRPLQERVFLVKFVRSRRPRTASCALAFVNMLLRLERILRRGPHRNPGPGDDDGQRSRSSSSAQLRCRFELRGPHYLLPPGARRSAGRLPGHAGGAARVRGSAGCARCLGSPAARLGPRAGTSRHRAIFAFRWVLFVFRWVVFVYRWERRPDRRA


What was measured:
[1] = target: T1, mouse p19ARF (murine p19Arf) (mouse); experiment: converse co-IP with ARF antibody from transfected Cos-7 cells, immunoblot for c-Myc (FIG. 2B)
[2] = target: c-Myc (exogenous, full length, expressed from pRcCMV-Myc2) (UniProt P01108); experiment: co-IP, figure legend title (FIGS. 2A-F)
[3] = target: c-Myc (exogenous, full length, expressed from pRcCMV-Myc2) (UniProt P01108); experiment: co-IP, summary of the experiments (exogenous proteins)
[4] = target: c-Myc (exogenous, full length, expressed from pRcCMV-Myc2) (UniProt P01108); experiment: co-IP with c-Myc antibody under stringent detergent conditions from transfected Cos-7 cells, immunoblot with ARF antibody (FIG. 2A)

binding [1] | binding [2] | binding [3] | binding [4] | Molecule
binds | – | – | – | c-Myc (exogenous, full length, expressed from pRcCMV-Myc2) (from UniProt P01108 1-439)
– | binds | binds | binds | mouse p19ARF (murine p19Arf) (other) MGRRFLVTVRIQRAGRPLQERVFLVKFVRSRRPRTASCALAFVNMLLRLERILRRGPHRNPGPGDDDGQRSRSSSSAQLRCRFELRGPHYLLPPGARRSAGRLPGHAGGAARVRGSAGCARCLGSPAARLGPRAGTSRHRAIFAFRWVLFVFRWVVFVYRWERRPDRRA
